# Measurements published in publication PMC5349851.
# The list shows a part of the results, in another mix than the full data. At the low end of the ranking the order means little.
# Tests used:
# Assay in all cases: SELEX-seq (CSI, HT-SELEX, round 3)
# Conditions in all cases: SELEX-seq: 1x PBS (10 mM phosphate, 137 mM NaCl, 2.7 mM KCl) pH 7.6, 2.5 mM DTT, 50 ng/ul poly dI-dC, 0.1% BSA, 50 nM biotinylated bZIP (1:3 with partner for …); high values mean tight binding; double strand, one strand shown
# BATF3 + BATF3 = system: T1, BATF3 + BATF3
# T1 sequence 1: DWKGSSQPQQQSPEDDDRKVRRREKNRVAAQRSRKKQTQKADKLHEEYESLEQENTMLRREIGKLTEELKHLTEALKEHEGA
# T1 sequence 2: T1 sequence 1
# BATF3 + CEBPA = system: BATF3 + CEBPA
# FOSL1 + CEBPG = system: T2, FOSL1 + CEBPG
# T2 sequence 1: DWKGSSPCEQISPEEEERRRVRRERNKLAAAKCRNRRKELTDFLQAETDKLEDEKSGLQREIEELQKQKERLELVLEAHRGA
# T2 sequence 2: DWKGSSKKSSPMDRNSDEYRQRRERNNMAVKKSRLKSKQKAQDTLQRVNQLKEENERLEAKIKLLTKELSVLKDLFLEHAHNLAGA
# CEBPG + CEBPG = system: T3, CEBPG + CEBPG
# T3 sequence 1: T2 sequence 2
# T3 sequence 2: T2 sequence 2
# CEBPA + CEBPA = system: CEBPA + CEBPA
# ATF4 + ATF4 = system: ATF4 + ATF4
# XBP1 + XBP1 = system: T4, XBP1 + XBP1
# T4 sequence 1: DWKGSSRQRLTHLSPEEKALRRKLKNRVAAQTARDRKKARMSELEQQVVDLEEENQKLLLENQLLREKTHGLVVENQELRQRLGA
# T4 sequence 2: T4 sequence 1
# DBP + DBP = system: T5, DBP + DBP
# T5 sequence 1: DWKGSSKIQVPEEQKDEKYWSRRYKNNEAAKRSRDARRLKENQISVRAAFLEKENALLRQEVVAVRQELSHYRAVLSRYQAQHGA
# T5 sequence 2: T5 sequence 1
# JUNB + ATF3 = system: T6, JUNB + ATF3
# T6 sequence 1: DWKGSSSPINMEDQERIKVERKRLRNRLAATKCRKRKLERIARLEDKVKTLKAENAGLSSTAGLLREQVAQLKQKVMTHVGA
# T6 sequence 2: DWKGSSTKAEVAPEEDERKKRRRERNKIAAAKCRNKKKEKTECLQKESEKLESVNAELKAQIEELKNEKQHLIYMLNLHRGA
# JUN + CEBPG = system: JUN + CEBPG
sequence,measurement,setting,value
ATGACGTAAT,binding signal (relative CSI intensity (max = 1)),BATF3 + BATF3,0.0127
ATGACGGAAT,binding signal (relative CSI intensity (max = 1)),BATF3 + CEBPA,0.000193
same,binding signal (relative CSI intensity (max = 1)),FOSL1 + CEBPG,0.00045
same,binding signal (relative CSI intensity (max = 1)),CEBPG + CEBPG,0.000168
same,binding signal (relative CSI intensity (max = 1)),CEBPA + CEBPA,0.000693
same,binding signal (relative CSI intensity (max = 1)),ATF4 + ATF4,1.84e-05
same,binding signal (relative CSI intensity (max = 1)),BATF3 + BATF3,0.000176
same,binding signal (relative CSI intensity (max = 1)),XBP1 + XBP1,-3.67e-05
same,binding signal (relative CSI intensity (max = 1)),DBP + DBP,0.000591
ATGACGTCAT,binding signal (relative CSI intensity (max = 1)),CEBPG + CEBPG,0.00362
same,binding signal (relative CSI intensity (max = 1)),ATF4 + ATF4,1
same,binding signal (relative CSI intensity (max = 1)),DBP + DBP,0.0564
ATGATGCAAT,binding signal (relative CSI intensity (max = 1)),FOSL1 + CEBPG,0.498
same,binding signal (relative CSI intensity (max = 1)),ATF4 + ATF4,4.8e-06
same,binding signal (relative CSI intensity (max = 1)),BATF3 + BATF3,0.000211
same,binding signal (relative CSI intensity (max = 1)),XBP1 + XBP1,-0.000348
same,binding signal (relative CSI intensity (max = 1)),JUNB + ATF3,0.000977
CCTGACGTCA,binding signal (relative CSI intensity (max = 1)),JUN + CEBPG,-0.0146
same,binding signal (relative CSI intensity (max = 1)),FOSL1 + CEBPG,0.000338
same,binding signal (relative CSI intensity (max = 1)),CEBPG + CEBPG,3.15e-05
same,binding signal (relative CSI intensity (max = 1)),CEBPA + CEBPA,0.000206
same,binding signal (relative CSI intensity (max = 1)),XBP1 + XBP1,0.000538
same,binding signal (relative CSI intensity (max = 1)),DBP + DBP,-0.000117
ATGACGCAAT,binding signal (relative CSI intensity (max = 1)),ATF4 + ATF4,5.92e-05
same,binding signal (relative CSI intensity (max = 1)),BATF3 + BATF3,0.00125
same,binding signal (relative CSI intensity (max = 1)),XBP1 + XBP1,0.00105

# Part of the list above, with tabs.
sequence	measurement	setting	value
ATGACGGAAT	binding signal (relative CSI intensity (max = 1))	FOSL1 + CEBPG	0.00045
CCTGACGTCA	binding signal (relative CSI intensity (max = 1))	FOSL1 + CEBPG	0.000338
